For this assay, the target named is Srs2 fused with the DNA binding domain of Gal4 (S. cerevisiae) (UniProt P12954). As to the kind of experiment: two-hybrid; Rad52 or Rad51 fused to the Gal4 activating domain, Srs2 or its fragments fused to the Gal4 DNA binding domain; strain PJ69 and a Δrad51 derivative; HIS3 under a Gal4-dependent promoter, growth on medium lacking leucine, tryptophan and histidine; 3 to 5 days at 30°C.

Chains of the proteins cited; added tags and fusions are not shown.
UniProt P25454: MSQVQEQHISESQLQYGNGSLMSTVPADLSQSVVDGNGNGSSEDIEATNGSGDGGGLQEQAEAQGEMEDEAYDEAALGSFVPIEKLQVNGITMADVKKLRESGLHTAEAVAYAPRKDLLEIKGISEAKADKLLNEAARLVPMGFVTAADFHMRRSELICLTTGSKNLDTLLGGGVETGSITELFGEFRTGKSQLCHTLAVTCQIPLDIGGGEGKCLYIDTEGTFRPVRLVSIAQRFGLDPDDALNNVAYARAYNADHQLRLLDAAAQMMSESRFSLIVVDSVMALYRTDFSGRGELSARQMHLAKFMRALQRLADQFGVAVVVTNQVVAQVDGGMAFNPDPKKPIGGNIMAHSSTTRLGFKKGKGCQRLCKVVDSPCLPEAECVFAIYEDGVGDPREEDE

These are yes or no findings as the source states them, for the method shown. A result given as binding can be weak or reduced; the word gives no strength.

Consider “Rad51 fused with the transcription-activating domain of Gal4 (from UniProt P25454 1-400)”, for which the binding entry is “binds”.
